From paper PMC12750218 (ACS Omega, 2025)

Test system: human α1-acid glycoprotein (AGP)
Assay: Isothermal titration calorimetry of AGP with APR enantiomers
Type: binding
Settings: ITC, aqueous 5% DMSO, 25 °C, One Set of Sites model

Compound | Stoichiometric parameter (n)
CCOc1cc([C@H](CS(C)(=O)=O)N2C(=O)c3cccc(NC(C)=O)c3C2=O)ccc1OC [R-APR, apremilast] | 1.3 ± 0.3
CCOc1cc([C@@H](CS(C)(=O)=O)N2C(=O)c3cccc(NC(C)=O)c3C2=O)ccc1OC [S-APR, apremilast] | 0.8 ± 0.2
